Measurements reported in paper PMC7438327.
No constants are given. Whether binding was seen depends on the method and setting. In cells and extracts the contact can be indirect. Some entries that bind do so weakly or less than the wild type. Tags and fused reporters may be left off the sequences shown.

Sequences of proteins named here, by UniProt entry; tags and fusion partners are left off. A change or cut given only in a name is not applied to a line headed by its entry. A line that says so, or that is headed by a name, gives the form on record, which may keep a tag or linker. Residues count along the entry.
cyclophilin D (CypD) WT, rescued in HEK CypD-KO cells (P30405, residues 30-207): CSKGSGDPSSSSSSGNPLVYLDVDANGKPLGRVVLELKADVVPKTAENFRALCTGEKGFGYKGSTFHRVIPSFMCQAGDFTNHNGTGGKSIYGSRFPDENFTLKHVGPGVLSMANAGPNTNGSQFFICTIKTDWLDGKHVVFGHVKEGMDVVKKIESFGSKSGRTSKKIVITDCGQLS
cyclophilin D (CypD) phosphomimetic S191E mutant, rescued in HEK CypD-KO cells (P30405, form named): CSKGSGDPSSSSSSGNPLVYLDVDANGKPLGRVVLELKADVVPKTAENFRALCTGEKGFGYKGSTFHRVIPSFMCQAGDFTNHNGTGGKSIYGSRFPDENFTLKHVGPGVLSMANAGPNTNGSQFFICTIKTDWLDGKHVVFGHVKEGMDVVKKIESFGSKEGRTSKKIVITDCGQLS
cyclophilin D (CypD) phosphoresistant S191A mutant, rescued in HEK CypD-KO cells (P30405, form named): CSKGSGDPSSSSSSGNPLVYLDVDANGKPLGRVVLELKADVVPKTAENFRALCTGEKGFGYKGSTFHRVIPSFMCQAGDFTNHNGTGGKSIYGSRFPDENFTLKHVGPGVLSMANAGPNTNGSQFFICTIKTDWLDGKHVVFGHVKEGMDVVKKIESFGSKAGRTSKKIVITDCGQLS

Target: T1, oligomycin sensitivity-conferring protein (OSCP), endogenous in HEK cells (human (endogenous in HEK)) (UniProt P48047)
T1 sequence: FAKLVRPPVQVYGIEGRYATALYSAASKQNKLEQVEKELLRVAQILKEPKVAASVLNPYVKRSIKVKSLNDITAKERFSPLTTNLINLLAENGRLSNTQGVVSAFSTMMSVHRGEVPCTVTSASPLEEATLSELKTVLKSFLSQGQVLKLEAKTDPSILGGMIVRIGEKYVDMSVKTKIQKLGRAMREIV
Experiment: proximity ligation; in situ PLA between OSCP and CypD in HEK CypD-KO cells rescued with WT, S191A or S191E CypD; basal condition and after 18 h starvation; interactions per cell as fold of WT

Substance	binding
cyclophilin D (CypD) WT, rescued in HEK CypD-KO cells (from UniProt P30405 30-207)	binds
cyclophilin D (CypD) phosphomimetic S191E mutant, rescued in HEK CypD-KO cells (from UniProt P30405 30-207)	binds
cyclophilin D (CypD) phosphoresistant S191A mutant, rescued in HEK CypD-KO cells (from UniProt P30405 30-207)	binds
